Substitutions are numbered along the chain they refer to. These are yes or no findings as the source states them, for the method shown. Some results given as binding are weak or reduced against the parent protein; the word gives no strength.
B1: 单域抗体2D6 (VHH, not shown: small tags and cut ends)
VHH: QVQLQESGGGSVQTGGSLRLSCAASGNSDGAWSMGWFRQAPGKEREGVAALYVFTGITYYAGSVKGRFTISQDKAKNTVYLQMNSLKPEDTAMYYCAAGTAFPTLNRNKYNYWGQGTQVTVSS
B2: 单域抗体1A5 (VHH, not shown: small tags and cut ends)
VHH: QVQLQESGGGSVQAGGSLRLACAASGYTYSSSYMGWFRQAPGKEREGVAVIYTGGGRTYYADSVKGRFTVSRDNAKNTVYLQMNSLKPEDTAMYYCAADGSRRNWFSPLDPRKYNYWGQGTQVTVSS
B3: 单域抗体2D2 (VHH, not shown: small tags and cut ends)
VHH: B2 VHH with G54S, F106Y
B4: 单域抗体2B9 (VHH, not shown: small tags and cut ends)
VHH: B2 VHH with S11L, A14P, G54S, F106Y
B5: 单域抗体1A10 (VHH, not shown: small tags and cut ends)
VHH: B2 VHH with S11L, A21S, G54T, V70I, F106Y, P108Q
B6: 单域抗体2A7 (VHH, not shown: small tags and cut ends)
VHH: B2 VHH with A21S, G54T, V70I, F106Y, P108Q
B7: 单域抗体2C9 (VHH, not shown: small tags and cut ends)
VHH: B2 VHH with G54A, P108Q
B8: 单域抗体2B4 (VHH, not shown: small tags and cut ends)
VHH: B2 VHH with S11L, A14P, A21S, G54F, V70I, F106Y, P108Q, N115L
B9: 单域抗体1B7 (VHH, not shown: small tags and cut ends)
VHH: B2 VHH with G16E, A21S, V70I, K76E, Q82R, F106Y
B10: 单域抗体2C10 (VHH, not shown: small tags and cut ends)
VHH: QVQLQESGGGSVQAGGSLRLSCVASGYTFSSDCMGWFRQAPGKKREGVAAIYTSGSSTYYADSVKGRFTISRDNAKNTVYLEMNSLKPEDTAIYYCAARRSSGGYCYIGSDFQISLYNNWGQGTQVTVSS
B11: 单域抗体2D5 (VHH, not shown: small tags and cut ends)
VHH: QVQLQESGGGSVQAGGSLRLSCTASGFTPDGSDMGWYRQAPGNECELVSVIRSGGSTYYTDSVKGRFTISRDNAKNTLYLQMNSLKPEDTAVYYCAADPSRYYSDYGAPGCGFHYWGQGTQVTVSS
B12: 单域抗体1C10 (VHH, not shown: small tags and cut ends)
VHH: QVQLQESGGGSVQAGGSLRLSCAVSGLTYSSNCMGWFRQAPGKEREGVAAIYNGGNTYYADSVKGRFTISRDNAKNTVYLEMNSLKPEDTAIYYCAARRSSGGYCYIGSDFQISLFNNWGQGTQVTVSS
B13: 单域抗体2A11 (VHH, not shown: small tags and cut ends)
VHH: QVQLQESGGGSVQAGGSLRLSCTASGFTLDDSDLGWYRQAPGNECELVSIIRRDGSPYHTYYPDSVKGRFTISQDNAKNTLYLQMNSLKPEDTAVYYCAADPSRYYSDYGAPGCGFNYWGQGTQVTVSS
B14: 单域抗体2C6 (VHH, not shown: small tags and cut ends)
VHH: QVQLQESGGGSVQAGGSLRLSCAASGSADRRNYVAWFRQAPGKEREGVAALGIVSGFTHYADSVKGRFTISQDNARNTVYLQMNRMIPEDTAMYYCAADSRTRVLISWFLNPDKYNYWGRGTQVTVSS
B15: 单域抗体1B2 (VHH, not shown: small tags and cut ends)
VHH: QVQLQESGGGTVQAGGSLTLSCAASGYTYNYMGWFRQAPGKEREGVAAIATSSGRAYYADSVKGRFTISQDNGKNTLHLQMNSLKPEDTAMYYCAAGSHYSGYSLSPGRYKYWGQGTQVTVSS
B16: 单域抗体1C2 (VHH, not shown: small tags and cut ends)
VHH: B15 VHH with A50H, S52G, A56T, A59I, G73A, L77T, H78N, N82T, S101A, L105M
B17: 单域抗体1B3 (VHH, not shown: small tags and cut ends)
VHH: B15 VHH with A50S, A59V, G73A, L77T, H78Y, L105I
B18: 单域抗体2C11 (VHH, not shown: small tags and cut ends)
VHH: B15 VHH with A48V, I49M, A50H, S52G, A59V, Q70R, G73A, L77V, L105M
B19: 单域抗体2A4 (VHH, not shown: small tags and cut ends)
VHH: QVQLQESGGGSVQAGGSLRLSCAASSYTGSVNYMAWFRQAPGKEREGVAAIYSGGGSTYYADSVKGRFTISRDNAKNTVYLQMNSLIPEDTATYYCASDQSRRSWFSPLVPGKYSLWGQGTQVTVSS
B20: 单域抗体1A2 (VHH, not shown: small tags and cut ends)
VHH: QVQLQESGGGSVQAGGSLRLSCTASGFTSDDSDMGWYRQAPGNECELVSVVRSDGTTYYPPSVRGRFTISQDNAKNTVSLQMNSLKPEDTAVYYCAADPSPYYRDYGAPGCGFNYWGQGTQVTVSS
B21: 单域抗体1C1 (VHH, not shown: small tags and cut ends)
VHH: QVQLQESGGGSVQAGGSLRLSCTASGFSLDDRDMGWYRQAPGNECELVSVIRSDGRTYYPDSVKGRFTISQDNAKRTLYLQMNSLKAEDTAVYYCAADPSRRYSDYGAPGCGFNYWGQGTQVTVSS
B22: 单域抗体2C5 (VHH, not shown: small tags and cut ends)
VHH: B21 VHH with R56S, R76N, A87P, R102Y, N114H
B23: 单域抗体1C3 (VHH, not shown: small tags and cut ends)
VHH: B21 VHH with R56S, R76N, A87P, R102Y
B24: 单域抗体1C9 (VHH, not shown: small tags and cut ends)
VHH: QVQLQESGGGSVRAGGSLRLSCAASGYTSSSYCMGWFRQAPGKEREGVAAIYTDTGGGSTYYADSVKGRFTISQGNAKNTLYLQMNSLKPEDTAMYYCAAVERRGGSCYTRYKYAAFAYWGQGTQVTVSS
B25: 单域抗体2D10 (VHH, not shown: small tags and cut ends)
VHH: QVQLQESGGGSVQAGGSLRLSCAASEYTSSVTFMGWVRQAPGKEREGVATIYTVTGRTYYADSVKGRFTISQDKAKNTVYLQMDSLKPEDTAMYYCAATPFSLSKTTRLAKFGSLNENEYDLWGQGTQVTVSS
B26: 单域抗体2D11 (VHH, not shown: small tags and cut ends)
VHH: B25 VHH with V54P, D84N

By UniProt entry, the sequences of proteins in these tests, tags left out. Residues count along the entry.
UniProt P02769, residues 25-607: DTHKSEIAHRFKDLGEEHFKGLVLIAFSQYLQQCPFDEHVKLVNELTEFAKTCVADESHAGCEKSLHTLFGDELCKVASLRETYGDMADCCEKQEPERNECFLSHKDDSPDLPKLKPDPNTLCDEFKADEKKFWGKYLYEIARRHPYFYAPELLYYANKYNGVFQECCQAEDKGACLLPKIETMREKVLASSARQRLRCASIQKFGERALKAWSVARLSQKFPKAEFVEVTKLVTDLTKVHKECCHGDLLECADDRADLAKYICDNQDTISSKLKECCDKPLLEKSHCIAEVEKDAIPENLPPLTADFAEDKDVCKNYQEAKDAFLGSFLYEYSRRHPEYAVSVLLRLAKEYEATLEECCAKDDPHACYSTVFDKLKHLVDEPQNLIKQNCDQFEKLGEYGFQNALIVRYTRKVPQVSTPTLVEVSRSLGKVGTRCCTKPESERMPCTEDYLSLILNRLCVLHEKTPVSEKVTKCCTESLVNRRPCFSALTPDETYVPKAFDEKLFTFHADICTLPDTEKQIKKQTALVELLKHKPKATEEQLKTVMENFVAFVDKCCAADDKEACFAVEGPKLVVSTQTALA

Each binder was assayed against 牛血清白蛋白(BSA) (牛 (bovine)) (UniProt P02769) (assay: ELISA, BSA coated 100 ng/100 µL, E. coli-expressed VHH, HRP anti-HA detection, OD450).

binding | Binder
binds | B1
binds | B2
binds | B3
binds | B4
binds | B5
binds | B6
binds | B7
binds | B8
binds | B9
binds | B10
binds | B11
binds | B12
binds | B13
binds | B14
binds | B15
binds | B16
binds | B17
binds | B18
binds | B19
binds | B20
binds | B21
binds | B22
binds | B23
binds | B24
binds | B25
binds | B26

What follows are binders tested against 生物素标记的BSA蛋白(BSA-Biotin) (牛 (bovine)) (UniProt P02769) (assay: ELISA of crude periplasmic extract on BSA-Biotin captured by neutravidin; positive = OD450 more than 5x control well).

binding | Binder
binds | B1
binds | B2
binds | B3
binds | B4
binds | B5
binds | B6
binds | B7
binds | B8
binds | B9
binds | B10
binds | B11
binds | B12
binds | B13
binds | B14
binds | B15
binds | B16
binds | B17
binds | B18
binds | B19
binds | B20
binds | B21
binds | B22
binds | B23
binds | B24
binds | B25
binds | B26

— patent publication CN111057148A
